Library screen at single concentrations

T. brucei: 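Whole-parasite assay of Trypanosoma brucei over 72 hours; the read-out is not stated. Compounds at 30 µM. Higher reads as stronger inhibition (inferred: compounds with an IC50 in retests scored well above the rest). Values scatter widely below zero; nearly all retest evidence comes from the higher of the two concentrations used. Size under these conditions: about 64,000 compounds, about 940 of them at 50% or above in at least one test.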
Toxoplasma: 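Assay of Toxoplasma gondii numbers, read through their beta-galactosidase reporter with a colour substrate. Compounds at 10 µM. Higher reads as fewer parasites (inferred from which compounds were picked for retests). Of about 67,000 compounds tested this way, about 260 (0.38%) reached 50% or more in at least one test.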

Values are the deposited “Percent Effect”, in %. The controls that fix the scale are not given in the record; negative values are as filed. The compounds are a random part of those screened.

c1cc(CN2CCC(Cc3noc(C4CC4)n3)CC2)c2c(c1)OCO2 gave T. brucei: -3.77%; Toxoplasma: 9.528%. COC(=O)C(CCSC)NC(=O)Cc1c(C)nn(-c2ccccc2)c1C (centres unmarked) gave T. brucei: 100.4%; Toxoplasma: 6.052%. O=C(O)C(F)(F)F.O=C(c1cccnc1)N1CCC2(CC1)COCCN(c1ncccn1)C2 gave T. brucei: -13.17%; Toxoplasma: 16.2%. For O=C(c1cc(Cl)c2c(c1)OCO2)N1CCN(c2nccs2)CC1 the result was T. brucei: -47.95%; Toxoplasma: 4.707%.

For CC(C)c1nsc(NC2CC(=O)N(C(C)(C)C)C2)n1 (centres unmarked) the result was T. brucei: 20.58%; Toxoplasma: 3.228%. CCCN1CCCn2nc(CNC(=O)CC3CCS(=O)(=O)C3)cc2C1 (centres unmarked) read T. brucei: -18.93%; Toxoplasma: -4.906%. O=C(O)[C@@H]1CN(C(=O)c2ccc3[nH]nnc3c2)C[C@H]1c1ccccc1 gave T. brucei: -25.13%; Toxoplasma: -20.09%. CNc1ncc(CN2CCC(CCc3ccccc3)CC2)cn1 gave T. brucei: -9.872%; Toxoplasma: 7.958%.

For Cc1cccc(C(C(=O)N2CC(Oc3ccccc3F)C2)N(C)C)c1 (centres unmarked) the result was T. brucei: -19.02%; Toxoplasma: -1.035%. O=C(O)C(F)(F)F.[H][C@@]12COC[C@]1(COc1ncccc1F)CN(C(=O)C1=CCCC1)C2 read T. brucei: -56.72%; Toxoplasma: -51.33%. Cc1ccc(C2NC(=O)c3cc(C(C)C)sc3N2)cc1 (centres unmarked) gave T. brucei: -14.91%; Toxoplasma: -8.911%. Result for Cc1ccc2c(c1)C1(CCNCC1)CC2N1CCOCC1 (centres unmarked) was T. brucei: -21.36%; Toxoplasma: 2.453%.

Result for COc1ccccc1C1SCC(=O)Nc2n[nH]cc21 (centres unmarked) was T. brucei: 40.76%; Toxoplasma: -1.458%. Fc1cccc(-c2nnn3c2COC(CNCc2cccs2)C3)c1.O=C(O)C(F)(F)F (centres unmarked) read T. brucei: 2.085%; Toxoplasma: -7.042%. Cn1c(=O)ccn(CC(=O)NCC2Cc3ccccc3O2)c1=O (centres unmarked) gave T. brucei: -9.936%; Toxoplasma: -3.255%. CN(C)c1ncc(-c2ccc(NC(=O)[C@@H]3CCCCN3)cc2)cn1 gave T. brucei: -21.61%; Toxoplasma: -1.27%.

CC(NCc1ccccc1Cl)c1ccc2[nH]c(=O)[nH]c2c1 (centres unmarked) gave T. brucei: -16.83%; Toxoplasma: 6.585%. With O=C(O)C(F)(F)F.[H][C@@]12OCCN(C(=O)c3occc3C)[C@@]1([H])CC[C@H]2OCCN(C)C the screen gave T. brucei: -28.99%; Toxoplasma: -1.496%. Cc1c(C(C)NC(=O)N2CCN(C3CCCC3)CC2)cnn1C (centres unmarked) read T. brucei: -60.62%; Toxoplasma: 4.75%. [H][C@@]12CCN(C(=O)c3ccco3)[C@]1([H])CN(S(C)(=O)=O)C2 read T. brucei: -6.047%; Toxoplasma: 12.91%.

With COC(=O)c1cccc(C(=O)N2CCN(c3cc(C)ccc3C)CC2)n1 the screen gave T. brucei: -0.7223%; Toxoplasma: 15.44%. With O=C(O)C(F)(F)F.O=C(O)C(F)(F)F.O=C(c1ccncc1)N1CCCn2c(CN3CCCC3)nnc2C1 the screen gave T. brucei: -15.26%; Toxoplasma: -5.818%. For CNC(=O)Cc1noc(Cc2cccc(Cl)c2)n1 the result was T. brucei: 12.24%; Toxoplasma: 14.38%. With COc1ccc(N(CCC(N)=O)C(=O)CSc2ccc(Cl)cc2)cc1 the screen gave T. brucei: -51.1%; Toxoplasma: 2.456%.

CNC(=O)C1CNCCN1C(=O)c1ccc(C(F)(F)F)nc1C.Cl (centres unmarked) gave T. brucei: -41.46%; Toxoplasma: -2.118%. Cn1cc(NC(=O)N2CCN(Cc3cscn3)CC2)ccc1=O read T. brucei: 6.267%; Toxoplasma: 0.9091%. CCN1CCc2[nH]cnc2C12CCN(C(=O)CCc1cccs1)CC2 read T. brucei: -36.32%; Toxoplasma: -3.738%. With CCN1CC(CN(C)Cc2nc(-c3cccc(Cl)c3)oc2C)CC1=O (centres unmarked) the screen gave T. brucei: -35.42%; Toxoplasma: 10.58%.

With Cc1ccnc(C2CN(Cc3ccc(-c4ccccc4C(=O)O)o3)C2)n1 the screen gave T. brucei: -1.229%; Toxoplasma: 4.833%. COc1cc(C#N)ccc1OCC(=O)NS(=O)(=O)c1cccnc1 gave T. brucei: -6.624%; Toxoplasma: 7.863%. Result for CCOc1cc(/C=C/c2ncc(C(=O)O)s2)cc(Br)c1OC was T. brucei: -8.56%; Toxoplasma: 12.77%. For Clc1cccc(N2CCC(NCc3ncc[nH]3)C2)c1 (centres unmarked) the result was T. brucei: 26.28%; Toxoplasma: -12.85%.

With Cn1cc(CN2CCOC(Cc3cccc(F)c3)C2)cn1 (centres unmarked) the screen gave T. brucei: -54.58%; Toxoplasma: -21.86%. For CNS(=O)(=O)c1cccc(S(=O)(=O)Nc2ncc(C)s2)c1 the result was T. brucei: -65.24%; Toxoplasma: 0.6472%. Result for CCN1CC(CN(C)Cc2nc(-c3ccc(F)cc3)oc2C)CC1=O (centres unmarked) was T. brucei: -37.85%; Toxoplasma: 0.1666%. Cn1cc(CN2CCc3nc4ccccc4c(=O)n3CC2)cn1 read T. brucei: 13.37%; Toxoplasma: -5.164%.

Cc1noc(C)c1CC(=O)Nc1ccn(CC(N)=O)n1 read T. brucei: -13.44%; Toxoplasma: -8.05%. CCC(=O)NCC(=O)NC(C)c1ccc(OCCC(C)C)cc1 (centres unmarked) gave T. brucei: -13.04%; Toxoplasma: 0.609%. Result for COc1ccnc(C(=O)N2CCCC(c3noc(C)n3)C2)c1 (centres unmarked) was T. brucei: -29.67%. With N#Cc1cnn(CCN2CCOC(CNc3cccnn3)C2)c1 (centres unmarked) the screen gave T. brucei: 6.317%; Toxoplasma: 11.04%.

For CCCNC(=O)NC(=O)CN1CCN(Cc2nccn2CC)CC1 the result was Toxoplasma: 0.773%. Result for Cc1cc(N2CCN(C(=O)c3cccnc3)CC2)nc(C)n1 was T. brucei: -5.532%; Toxoplasma: -13.52%. For O=C(O)CC(O)(CC(=O)O)C(=O)O.[H][C@@]12CC[C@@](O)(c3ccc(C)cn3)[C@]1([H])CN(Cc1cccc(Cl)c1Cl)C2 the result was T. brucei: 33.72%; Toxoplasma: 51.44%. With O=c1cc2c(nn1CN1CCN(c3ccc(F)cc3)CC1)CCC2 the screen gave T. brucei: -35.53%; Toxoplasma: 0.3078%.

Result for CC(C)Cc1cc(NC(=O)N2CCC(Oc3cccnc3)C2)n(C)n1 (centres unmarked) was T. brucei: 5.733%; Toxoplasma: -1.444%. Cc1cnc(N2CCn3cc(CNC(=O)CC4CC4)nc3C2)nc1 read T. brucei: -20.56%; Toxoplasma: -0.721%. With O=C(NCCCn1cncn1)N1CCCCCC1 the screen gave T. brucei: 5.796%; Toxoplasma: -9.506%. For CC(C)N(C)S(=O)(=O)c1ccc2c(c1)CCN(C(=O)c1cscn1)C2 the result was T. brucei: -38.59%; Toxoplasma: -15.66%.

The last 2 entries again:

| SMILES | T. brucei | Toxoplasma |
|---|---|---|
| `O=C(NCCCn1cncn1)N1CCCCCC1` | 5.796 | -9.506 |
| `CC(C)N(C)S(=O)(=O)c1ccc2c(c1)CCN(C(=O)c1cscn1)C2` | -38.59 | -15.66 |

Source: ChEMBL document CHEMBL3988442, “University of Dundee, Small-Polar-MMV Screening Library” (2021).